Results deposited as PubChem BioAssay AID1224830 (NIAID, 2016).

Aim: 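Genes whose knock-down alters the TNF-alpha reporter response to LPS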 (primary screen)
Cell system: human THP-1 monocytic leukaemia cells, TNF dual-luciferase reporter clone, PMA-differentiated to macrophage-like cells
Knock-down reagent: siRNA pool against human genes, 50 nM
Time to read-out: LPS for 4 h, given about 3 days after siRNA transfection
Challenge: bacterial LPS (TLR4 ligand), 10 ng/ml
Measurement: 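TNF firefly reporter luminescence divided by renilla, normalised to the plate median, then turned into a robust z-score for each replicate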
Scale: TNF reporter robust z-score: higher = stronger TNF reporter response to LPS
Rule for the call: 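Each well counts as active if its z-score is over 2.8 or under -1.5; controls are left without a call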
In all, the deposit lists about 18,000 reagents; this is a random part of them. In the full data, about 2,900 (16%) are marked active. 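Calls are made per well; low scores hint the gene aids the LPS response, high scores that it dampens it.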 Entries without a mark were called inactive. Repeated entries: four replicate wells of each siRNA pool.

RGCC (GeneID 28984) → TNF reporter robust z-score = -0.27
RGCC (GeneID 28984) → TNF reporter robust z-score = -1.13
RGCC (GeneID 28984) → TNF reporter robust z-score = -1.08
RGCC (GeneID 28984) → TNF reporter robust z-score = -1.3
UBQLN3 (GeneID 50613) → TNF reporter robust z-score = -1.2
UBQLN3 (GeneID 50613) → TNF reporter robust z-score = -0.37
UBQLN3 (GeneID 50613) → TNF reporter robust z-score = -0.74
UBQLN3 (GeneID 50613) → TNF reporter robust z-score = -0.49
TMTC2 (GeneID 160335) → TNF reporter robust z-score = 0.02
TMTC2 (GeneID 160335) → TNF reporter robust z-score = -0.07
TMTC2 (GeneID 160335) → TNF reporter robust z-score = -0.02
TMTC2 (GeneID 160335) → TNF reporter robust z-score = -0.64
SPEF1 (GeneID 25876) → TNF reporter robust z-score = 0.34
SPEF1 (GeneID 25876) → TNF reporter robust z-score = 0.41
SPEF1 (GeneID 25876) → TNF reporter robust z-score = 0.71
SPEF1 (GeneID 25876) → TNF reporter robust z-score = 1.24
CSRNP3 (GeneID 80034) → TNF reporter robust z-score = -0.36
CSRNP3 (GeneID 80034) → TNF reporter robust z-score = -0.67
CSRNP3 (GeneID 80034) → TNF reporter robust z-score = 0.06
CSRNP3 (GeneID 80034) → TNF reporter robust z-score = -1.43

Entries above whose target name begins with C or c (4):
CSRNP3 (GeneID 80034) → TNF reporter robust z-score = -0.36
CSRNP3 (GeneID 80034) → TNF reporter robust z-score = -0.67
CSRNP3 (GeneID 80034) → TNF reporter robust z-score = 0.06
CSRNP3 (GeneID 80034) → TNF reporter robust z-score = -1.43

Additional results follow.
ABCD1 (GeneID 215) → TNF reporter robust z-score = 1.36
ABCD1 (GeneID 215) → TNF reporter robust z-score = 1.64
ABCD1 (GeneID 215) → TNF reporter robust z-score = 2.05
ABCD1 (GeneID 215) → TNF reporter robust z-score = 1.77
SSNA1 (GeneID 8636) → TNF reporter robust z-score = 1.77
SSNA1 (GeneID 8636) → TNF reporter robust z-score = 0.42
SSNA1 (GeneID 8636) → TNF reporter robust z-score = 0.49
SSNA1 (GeneID 8636) → TNF reporter robust z-score = 0.7
PPP1R10 (GeneID 5514) → TNF reporter robust z-score = -2.17 (active)
PPP1R10 (GeneID 5514) → TNF reporter robust z-score = -2.09 (active)
PPP1R10 (GeneID 5514) → TNF reporter robust z-score = -2.24 (active)
PPP1R10 (GeneID 5514) → TNF reporter robust z-score = -1.95 (active)
RASSF2 (GeneID 9770) → TNF reporter robust z-score = 2.26
RASSF2 (GeneID 9770) → TNF reporter robust z-score = 0.45
RASSF2 (GeneID 9770) → TNF reporter robust z-score = 0.46
RASSF2 (GeneID 9770) → TNF reporter robust z-score = 1.74
NCF2 (GeneID 4688) → TNF reporter robust z-score = -0.58
NCF2 (GeneID 4688) → TNF reporter robust z-score = 0.43
NCF2 (GeneID 4688) → TNF reporter robust z-score = -0.25
NCF2 (GeneID 4688) → TNF reporter robust z-score = 0.89
HTN1 (GeneID 3346) → TNF reporter robust z-score = 0.5
HTN1 (GeneID 3346) → TNF reporter robust z-score = 0.37
HTN1 (GeneID 3346) → TNF reporter robust z-score = -0.05
HTN1 (GeneID 3346) → TNF reporter robust z-score = -0.61
ZNF41 (GeneID 7592) → TNF reporter robust z-score = 0.33
ZNF41 (GeneID 7592) → TNF reporter robust z-score = -0.03
ZNF41 (GeneID 7592) → TNF reporter robust z-score = 0.72
ZNF41 (GeneID 7592) → TNF reporter robust z-score = 2
NFXL1 (GeneID 152518) → TNF reporter robust z-score = 0.18
NFXL1 (GeneID 152518) → TNF reporter robust z-score = 0.57
NFXL1 (GeneID 152518) → TNF reporter robust z-score = -0.66
NFXL1 (GeneID 152518) → TNF reporter robust z-score = -0.4
RMP64 (GeneID 25871) → TNF reporter robust z-score = 0.3
RMP64 (GeneID 25871) → TNF reporter robust z-score = -0.71
RMP64 (GeneID 25871) → TNF reporter robust z-score = 0.49
RMP64 (GeneID 25871) → TNF reporter robust z-score = 0.57
SV2C (GeneID 22987) → TNF reporter robust z-score = -0.12
SV2C (GeneID 22987) → TNF reporter robust z-score = 0.14
SV2C (GeneID 22987) → TNF reporter robust z-score = 0
SV2C (GeneID 22987) → TNF reporter robust z-score = -0.21
